Source: publication PMC8016650
No constants are given. Whether binding was seen depends on the method and setting. Binding seen in cells or lysates may run through a third protein. Here binding means that the protein was enriched with, or labelled near, the bait; the list need not be complete.

By UniProt entry, the sequences of proteins in these tests, tags left out.
UniProt P11413: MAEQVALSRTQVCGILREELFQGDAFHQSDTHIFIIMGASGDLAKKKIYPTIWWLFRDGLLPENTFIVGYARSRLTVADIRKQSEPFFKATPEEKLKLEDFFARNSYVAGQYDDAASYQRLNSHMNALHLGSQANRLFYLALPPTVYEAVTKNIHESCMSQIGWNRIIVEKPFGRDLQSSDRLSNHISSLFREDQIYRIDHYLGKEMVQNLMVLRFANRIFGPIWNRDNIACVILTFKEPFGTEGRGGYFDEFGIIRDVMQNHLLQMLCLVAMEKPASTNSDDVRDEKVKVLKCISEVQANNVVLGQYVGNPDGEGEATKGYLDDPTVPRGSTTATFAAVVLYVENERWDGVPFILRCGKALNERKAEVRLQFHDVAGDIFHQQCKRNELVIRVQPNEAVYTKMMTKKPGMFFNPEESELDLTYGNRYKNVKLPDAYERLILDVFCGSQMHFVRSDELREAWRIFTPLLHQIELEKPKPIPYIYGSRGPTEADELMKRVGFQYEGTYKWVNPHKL

Biological target: T1, Testes-specific protease 50 (TSP50) (human (endogenous in Huh7 and Bel7402)) (UniProt Q9UI38)
T1 sequence: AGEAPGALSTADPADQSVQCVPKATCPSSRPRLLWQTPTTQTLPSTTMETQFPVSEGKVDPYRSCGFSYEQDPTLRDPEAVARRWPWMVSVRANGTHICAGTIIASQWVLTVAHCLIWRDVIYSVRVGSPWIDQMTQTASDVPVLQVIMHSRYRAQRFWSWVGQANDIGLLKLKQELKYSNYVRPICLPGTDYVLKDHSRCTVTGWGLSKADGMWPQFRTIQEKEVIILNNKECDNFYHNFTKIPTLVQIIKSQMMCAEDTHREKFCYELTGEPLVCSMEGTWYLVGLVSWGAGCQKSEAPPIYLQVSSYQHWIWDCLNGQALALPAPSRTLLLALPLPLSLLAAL
Assay: affinity purification with mass spectrometry; Co-IP with anti-TSP50 antibody from Huh7 cells (Pierce cross-link immunoprecipitation kit), eluate analysed by LC-MS/MS; non-specific proteins removed

- binding: binds
Substance: Glucose-6-phosphate dehydrogenase (G6PD) (from UniProt P11413 1-515) (enzyme)
